The other results are listed elsewhere or left out.
molecular target: OsWRKY34 (Oryza sativa, UniProt Q0JBA9 1-250); assay: protein-binding microarray (RPBM); PBS, 2% BSA, 51.3 ng/ul salmon testes DNA, 50 uM zinc acetate, 200 nM TF, 25 C, 1 h; high values mean tight binding; details: protein: recombinant; tags: N-terminal polyhistidine and DsRed monomer fusion (pET32a); label: CyDye5-dUTP incorporated in the synthesized complementary strand; 3' TTTTT single-stranded linker to array surface; dsDNA, one strand shown
Outline: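 Transcription factors were made in E. coli BL21-CodonPlus as N-terminal fusions to a polyhistidine tag and DsRed, then purified on Ni–NTA. After primer extension with Cy5-dUTP and blocking with 2% BSA, a custom Agilent array was exposed for 1 h at 25 °C to 200 nM protein in PBS, 2% BSA, salmon testes DNA and 50 µM zinc acetate. Washed arrays were scanned on an Axon 4000B, and the binding signal is per-feature fluorescence intensity in arbitrary units.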

The chains behind the UniProt entries cited, without tags or fusion partners.
UniProt Q0JBA9, entry or part of it: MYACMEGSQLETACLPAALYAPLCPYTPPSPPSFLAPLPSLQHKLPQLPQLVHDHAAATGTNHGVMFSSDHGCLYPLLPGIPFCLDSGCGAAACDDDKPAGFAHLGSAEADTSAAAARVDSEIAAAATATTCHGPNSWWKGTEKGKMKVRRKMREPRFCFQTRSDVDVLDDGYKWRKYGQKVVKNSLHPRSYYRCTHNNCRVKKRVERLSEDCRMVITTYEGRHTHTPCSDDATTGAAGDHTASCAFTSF

In order of falling binding signal:
1. AGCGTTGACCATACTTAAATCACAGTTTTCTTTTCTTTTTCGGAGTCACCTAGTGCAG  21800 fluorescence intensity (a.u.)
2. ACTTTGTCCACCCATTTTGTGTTGTCTCGTTGTTTCTATTCGGAGTCACCTAGTGCAG  17000 fluorescence intensity (a.u.)
3. ACACTCTCCGACGATATTTTCCTTCTCTGTTTTTTTTTTCCGGAGTCACCTAGTGCAG  16200 fluorescence intensity (a.u.)
4. GGGGCATATTTTGCATGATTTTAAACATTGAAGGGGTAGACGGAGTCACCTAGTGCAG  15100 fluorescence intensity (a.u.)
5. GCCACGAATCGTTTCACCTCACTTCCCACCACCTCTCGCCCGGAGTCACCTAGTGCAG  14900 fluorescence intensity (a.u.)
6. TTCCTCCCGCCGCCGCCGCCGTCTTCGCCTCCTTTATAATCGGAGTCACCTAGTGCAG  12700 fluorescence intensity (a.u.)
7. GAAACTTCATTTAGATATCGCTTTTCCTGCTTGGTTCGTTCGGAGTCACCTAGTGCAG  12700 fluorescence intensity (a.u.)
8. CCACCGTTTCCACCCAGATTCGCGCCCGCCACTTCCGACTCGGAGTCACCTAGTGCAG  12500 fluorescence intensity (a.u.)
9. TGCTAGGGTTTTCGGGAGGCGGGTCTAGGGTTGAGGCAAACGGAGTCACCTAGTGCAG  12300 fluorescence intensity (a.u.)
10. GCCACTTTACCATTTTCATCATTTCTTCCATTTTAAGTTTCGGAGTCACCTAGTGCAG  12200 fluorescence intensity (a.u.)
11. CATCGAAGAATTGAAAATGTGGTTTGGGGTGGTTTATTGTCGGAGTCACCTAGTGCAG  12000 fluorescence intensity (a.u.)
12. CACAAGGCTGTTCATACAATTGGATTTTGTCTGCAGTTCTCGGAGTCACCTAGTGCAG  11900 fluorescence intensity (a.u.)
13. TTTTCCTATTCCTTTGTTTTTTCATTCCTGTGATTCAAATCGGAGTCACCTAGTGCAG  11800 fluorescence intensity (a.u.)
14. TCGAATAACTCCACAGGTACTACATATACATGCCATTTCTCGGAGTCACCTAGTGCAG  11500 fluorescence intensity (a.u.)
15. CATTCCATCGCTGGTCCTTTTTTCACCAAATCAGTGCCAACGGAGTCACCTAGTGCAG  11400 fluorescence intensity (a.u.)
16. TAAATTTGTAGCCCGCTACTCTTCTCTCTTTTTATTTATTCGGAGTCACCTAGTGCAG  10700 fluorescence intensity (a.u.)
17. TACCAGTTCGAAGTTTTCGCATGCACCAACCAATCAATCGCGGAGTCACCTAGTGCAG  10600 fluorescence intensity (a.u.)
18. TCTGCTTGTACTCATGAGTTGTCATCTTAGATAGATGGGGCGGAGTCACCTAGTGCAG  10600 fluorescence intensity (a.u.)
19. TCTTGATCACTTGCTACCTCACTACTGCGATTTGCCAACACGGAGTCACCTAGTGCAG  10500 fluorescence intensity (a.u.)
20. TCTACTTCCCAAAACTTCTAATTTTTACGTGGAACTAATCCGGAGTCACCTAGTGCAG  10400 fluorescence intensity (a.u.)
21. TGTAATCTGTAGGCGTTGACTACCTCGCATGCCACGCAGTCGGAGTCACCTAGTGCAG  10400 fluorescence intensity (a.u.)
22. GTTTGTCATTCTAGCACTGTCCACATTCATATTGATCTTACGGAGTCACCTAGTGCAG  10300 fluorescence intensity (a.u.)
23. TGTTCTAGCAGTTTTGTCCCATATTCGGGCTATAAATTTTCGGAGTCACCTAGTGCAG  10300 fluorescence intensity (a.u.)
24. CTTTTTAATTTTCTATCCTTTTTGCACATCTATATACTACCGGAGTCACCTAGTGCAG  10200 fluorescence intensity (a.u.)
25. TACGTTAGGTTGTGTTCCATCCTTATTTTATTTTTTTTATCGGAGTCACCTAGTGCAG  10100 fluorescence intensity (a.u.)
26. CGCCGCCTCCTCGTTCTTCCCTAGCCGTCGTCACCGCCCGCGGAGTCACCTAGTGCAG  10000 fluorescence intensity (a.u.)
27. CTCGGCCAAAAAGAGATATCCCTTTCGCGCTCATCTTATCCGGAGTCACCTAGTGCAG  9980 fluorescence intensity (a.u.)
28. GTGCCCTCTTCCAATCCCGCCACTGAAACAGGCCCGCGGCCGGAGTCACCTAGTGCAG  9950 fluorescence intensity (a.u.)
29. CTGCACTCTCCATTTCAGCGCTTTCCAGCTTTCCTCCTATCGGAGTCACCTAGTGCAG  9920 fluorescence intensity (a.u.)
30. CCTGTTTTTTGTTTTTGGTGGTGGTTCCGTCTCGGTTAATCGGAGTCACCTAGTGCAG  9840 fluorescence intensity (a.u.)
31. CTGTACTCTACTACACTACGACTACCCATTTTCATCGATCCGGAGTCACCTAGTGCAG  9800 fluorescence intensity (a.u.)
32. GGTCTATAAATTCATGTACATTAGCACAACAACCACTACACGGAGTCACCTAGTGCAG  9780 fluorescence intensity (a.u.)
33. TTCTAATCGCCCACCTACTGACATATTGGTCGCATTGATACGGAGTCACCTAGTGCAG  9760 fluorescence intensity (a.u.)
34. CTATCTACTACTGCTCGAGCTCAACCAGCATTTCCAGCTTCGGAGTCACCTAGTGCAG  9750 fluorescence intensity (a.u.)
35. CCCCATCAACCTCCTCTTCTTCTTCGCCTCGTCTCGTCTTCGGAGTCACCTAGTGCAG  9670 fluorescence intensity (a.u.)
36. CTCAGTTTCGCGTATATCCTAGTACCAACGATCCCCATACCGGAGTCACCTAGTGCAG  9640 fluorescence intensity (a.u.)
37. TGCCTTAGGAGTTAGGTCTGATTTATGGTTTAGTTCCCAACGGAGTCACCTAGTGCAG  9580 fluorescence intensity (a.u.)
38. GTTTGTTTTCCTGTGGAATGGATGGCCAAGGAAATTTTCCCGGAGTCACCTAGTGCAG  9520 fluorescence intensity (a.u.)
39. CTCCTTGACTAATGTTGCGTTCTCTAATCTCCCTCTGACTCGGAGTCACCTAGTGCAG  9450 fluorescence intensity (a.u.)
40. GACGCGTTCTCGTGTGCTGCATATTGTTTAGCTTGTAAGACGGAGTCACCTAGTGCAG  9440 fluorescence intensity (a.u.)
41. GACCACCCACCGGGCCCGCGTGCGCCGCGACACACGGCGCCGGAGTCACCTAGTGCAG  9420 fluorescence intensity (a.u.)
42. CATGTTGGTTGCTTGCTTGCTACTAGTAGCTGCCGCTCACCGGAGTCACCTAGTGCAG  9340 fluorescence intensity (a.u.)
43. AGCCTGAAGCTGCTTTCGTCGTCACCGGTTGCCGTCTGATCGGAGTCACCTAGTGCAG  9190 fluorescence intensity (a.u.)
44. ACTCGAGCCCACTCCAACTCCACTCCACTACGCCGATCGTCGGAGTCACCTAGTGCAG  9170 fluorescence intensity (a.u.)
45. GAATCTCTATGCATTGTTTCTCCAGTGTTAACATCGTTTCCGGAGTCACCTAGTGCAG  9140 fluorescence intensity (a.u.)
46. TCCCACATGCTGAGTCAGCTCGTCAACCGGGTCAATGACGCGGAGTCACCTAGTGCAG  9090 fluorescence intensity (a.u.)
47. AAATAGTTCACAAAGTTCAGTCATTAGTTGGGTTTCTAGTCGGAGTCACCTAGTGCAG  9060 fluorescence intensity (a.u.)
48. CCATCGTCCACCCTGACTGGCTCCAACTCTTTAGTATTCACGGAGTCACCTAGTGCAG  9040 fluorescence intensity (a.u.)
49. AAATACTCCATATTTATTTGTTTCTGACTTTTCAGTGCATCGGAGTCACCTAGTGCAG  9010 fluorescence intensity (a.u.)
50. TAGCCTTTCAACCAGCGTCGTGCTTGGTTTTGTTATTCACCGGAGTCACCTAGTGCAG  8980 fluorescence intensity (a.u.)
51. GGCCTAACCTATGTAGCCCGTTCGTTCCAGCCCAACAATACGGAGTCACCTAGTGCAG  8940 fluorescence intensity (a.u.)
52. AACTCATTATGGATCCGCTCAGTACACCGTACACGGTGACCGGAGTCACCTAGTGCAG  8830 fluorescence intensity (a.u.)
53. ACACTCTATTAAGAGGATCCGTTTCATTTTTTGTTCCATCCGGAGTCACCTAGTGCAG  8760 fluorescence intensity (a.u.)
54. CCACCCGCTGCTCTACTCGCACCAGGTAACCTATCACTGACGGAGTCACCTAGTGCAG  8710 fluorescence intensity (a.u.)
55. ACGCTGGCGCCGCTCGCGCCACCGCACCCGCACCGCCATGCGGAGTCACCTAGTGCAG  8700 fluorescence intensity (a.u.)
56. GGCTCTAAAGACACTCATTCCTACAGTGCAAGTATCCTATCGGAGTCACCTAGTGCAG  8700 fluorescence intensity (a.u.)
57. CGCTCCTCGCGGCCGCCGCCGCCGCCTCCCTCCTCGCCTTCGGAGTCACCTAGTGCAG  8660 fluorescence intensity (a.u.)
58. TATTTCTTCACCTTTAGTCATGTCACCTCTCACTTCACACCGGAGTCACCTAGTGCAG  8650 fluorescence intensity (a.u.)
59. GGGTTCTCCTCCGAGGCGCCACACGTCATGCTTCTCCTCTCGGAGTCACCTAGTGCAG  8620 fluorescence intensity (a.u.)
60. ATTTTCAGTTTACTAATGTATGTCTAGTAAAGTTGTTGACCGGAGTCACCTAGTGCAG  8620 fluorescence intensity (a.u.)
61. TGTTTGACCGTTCGTCTTATTAAAATTTTTTTGTGAAATACGGAGTCACCTAGTGCAG  8610 fluorescence intensity (a.u.)
62. TTCCCGCCTACATTTTCGCCACGTCAGCGATCCGCACCGACGGAGTCACCTAGTGCAG  8550 fluorescence intensity (a.u.)
63. CAACCGCTTCGTTCTCCGTTGGTGTATAGTTGCCGCAGCACGGAGTCACCTAGTGCAG  8530 fluorescence intensity (a.u.)
64. TGTGAGATTCTATGCGTGTTCGTTGCCTGTTCATAGTCCACGGAGTCACCTAGTGCAG  8420 fluorescence intensity (a.u.)
65. ACAAGCTTCTTCTTCACCTCACCTCTCATCTCATCATCCCCGGAGTCACCTAGTGCAG  8400 fluorescence intensity (a.u.)
66. ACGTCATTCGTCCATAGCAATTCAAACTTCAAAGTCTCGTCGGAGTCACCTAGTGCAG  8400 fluorescence intensity (a.u.)
67. ACCGATGACGCCGTCCGCCACCTGCTTAAACCCGCGGCCTCGGAGTCACCTAGTGCAG  8390 fluorescence intensity (a.u.)
68. ATTCCCATCTCTCCACTCTCCCTCCTATCATATGCTCCTCCGGAGTCACCTAGTGCAG  8390 fluorescence intensity (a.u.)
69. CTAGCACCCTACACTATAAAACCATATGCATCTGAATTTGCGGAGTCACCTAGTGCAG  8350 fluorescence intensity (a.u.)
70. AGGTGACGTTTCACTTGGATTTGCATGACTTTAGAGATTACGGAGTCACCTAGTGCAG  8340 fluorescence intensity (a.u.)
71. GGTGCTGCCACAGCTCATCTACCAGGTCTACACATTTACCCGGAGTCACCTAGTGCAG  8310 fluorescence intensity (a.u.)
72. CTGAAGTTCGCCATTGACATTGACTCAATTTGTTTATGCACGGAGTCACCTAGTGCAG  8290 fluorescence intensity (a.u.)
73. TGTTGGATGATGTTATTTTGCTATGTTGACTTGTTGAGACCGGAGTCACCTAGTGCAG  8290 fluorescence intensity (a.u.)
74. TCTCTCGGTCTCCACCGGAATTTCCCCGAAATACCCTTGCCGGAGTCACCTAGTGCAG  8280 fluorescence intensity (a.u.)
75. ACACAACTTGTTAATTTGACCTGTAGCCCCATCATGTACACGGAGTCACCTAGTGCAG  8270 fluorescence intensity (a.u.)
76. ACGACGGTTGTCTGTCTGTCTGTCTGTCATGTTTTGTAGTCGGAGTCACCTAGTGCAG  8260 fluorescence intensity (a.u.)
77. CGTCGATGCCAATACAATAACCATCATCATCATCATCATTCGGAGTCACCTAGTGCAG  8210 fluorescence intensity (a.u.)
78. AGCAGCCGATCCCATCACACGCACACTGACACACAGTCACCGGAGTCACCTAGTGCAG  8190 fluorescence intensity (a.u.)
79. GCATCTTACTAGCATGCGTTTGCACTCACCAAGGCACTGACGGAGTCACCTAGTGCAG  8150 fluorescence intensity (a.u.)
80. TGTCCCTGTCAGCTCCTGCTCTCTTTCCTCTCTTCTCTTTCGGAGTCACCTAGTGCAG  8140 fluorescence intensity (a.u.)
81. CCACGACACCACTCTCACCGCTCTCGCCACGACACATTTTCGGAGTCACCTAGTGCAG  8130 fluorescence intensity (a.u.)
82. AGCCTCGACTACTGCTTTGACCTTCTCCTTCCCGGCGTCGCGGAGTCACCTAGTGCAG  8120 fluorescence intensity (a.u.)
83. CATATGGGCACGCGGTAGCTGAATTGTAGTTTCATCCATCCGGAGTCACCTAGTGCAG  8060 fluorescence intensity (a.u.)
84. AGACACATCTAGCAGGCAAACCATCACTTTACCCAGTAATCGGAGTCACCTAGTGCAG  8050 fluorescence intensity (a.u.)
